In the supplement of paper PMC6411743:
± gives the standard deviation of the averaged measurements. The entries are a selection whose mix differs from that of the whole data set. Small differences around the control level are noise.

Amino acid sequences for entries named in this document (tags omitted). A change or cut given only in a name is not applied to a line headed by its entry.
UniProt O76071: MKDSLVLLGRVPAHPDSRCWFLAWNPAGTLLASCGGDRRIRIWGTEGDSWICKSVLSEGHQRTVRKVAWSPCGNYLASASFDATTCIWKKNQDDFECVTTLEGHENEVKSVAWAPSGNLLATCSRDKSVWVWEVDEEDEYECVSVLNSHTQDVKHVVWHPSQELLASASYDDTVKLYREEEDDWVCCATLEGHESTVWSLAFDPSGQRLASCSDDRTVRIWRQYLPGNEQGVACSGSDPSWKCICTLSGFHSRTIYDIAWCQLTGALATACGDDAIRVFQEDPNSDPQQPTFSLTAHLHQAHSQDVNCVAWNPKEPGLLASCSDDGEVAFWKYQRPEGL
UniProt O75879: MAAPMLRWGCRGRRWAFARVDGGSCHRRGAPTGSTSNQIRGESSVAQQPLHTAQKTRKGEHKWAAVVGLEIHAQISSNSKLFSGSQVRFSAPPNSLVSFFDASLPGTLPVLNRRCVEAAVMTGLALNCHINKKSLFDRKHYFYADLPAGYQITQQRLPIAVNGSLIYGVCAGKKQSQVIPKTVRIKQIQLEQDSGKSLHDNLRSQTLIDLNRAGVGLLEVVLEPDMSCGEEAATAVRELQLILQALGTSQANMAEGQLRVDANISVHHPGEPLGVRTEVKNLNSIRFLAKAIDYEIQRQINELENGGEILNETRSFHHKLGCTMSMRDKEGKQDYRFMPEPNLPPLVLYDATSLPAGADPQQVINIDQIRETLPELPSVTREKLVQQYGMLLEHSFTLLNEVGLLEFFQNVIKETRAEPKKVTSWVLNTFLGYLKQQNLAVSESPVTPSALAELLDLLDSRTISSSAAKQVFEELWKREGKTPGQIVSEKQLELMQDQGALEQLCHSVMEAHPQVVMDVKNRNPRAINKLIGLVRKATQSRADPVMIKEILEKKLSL
UniProt O94804: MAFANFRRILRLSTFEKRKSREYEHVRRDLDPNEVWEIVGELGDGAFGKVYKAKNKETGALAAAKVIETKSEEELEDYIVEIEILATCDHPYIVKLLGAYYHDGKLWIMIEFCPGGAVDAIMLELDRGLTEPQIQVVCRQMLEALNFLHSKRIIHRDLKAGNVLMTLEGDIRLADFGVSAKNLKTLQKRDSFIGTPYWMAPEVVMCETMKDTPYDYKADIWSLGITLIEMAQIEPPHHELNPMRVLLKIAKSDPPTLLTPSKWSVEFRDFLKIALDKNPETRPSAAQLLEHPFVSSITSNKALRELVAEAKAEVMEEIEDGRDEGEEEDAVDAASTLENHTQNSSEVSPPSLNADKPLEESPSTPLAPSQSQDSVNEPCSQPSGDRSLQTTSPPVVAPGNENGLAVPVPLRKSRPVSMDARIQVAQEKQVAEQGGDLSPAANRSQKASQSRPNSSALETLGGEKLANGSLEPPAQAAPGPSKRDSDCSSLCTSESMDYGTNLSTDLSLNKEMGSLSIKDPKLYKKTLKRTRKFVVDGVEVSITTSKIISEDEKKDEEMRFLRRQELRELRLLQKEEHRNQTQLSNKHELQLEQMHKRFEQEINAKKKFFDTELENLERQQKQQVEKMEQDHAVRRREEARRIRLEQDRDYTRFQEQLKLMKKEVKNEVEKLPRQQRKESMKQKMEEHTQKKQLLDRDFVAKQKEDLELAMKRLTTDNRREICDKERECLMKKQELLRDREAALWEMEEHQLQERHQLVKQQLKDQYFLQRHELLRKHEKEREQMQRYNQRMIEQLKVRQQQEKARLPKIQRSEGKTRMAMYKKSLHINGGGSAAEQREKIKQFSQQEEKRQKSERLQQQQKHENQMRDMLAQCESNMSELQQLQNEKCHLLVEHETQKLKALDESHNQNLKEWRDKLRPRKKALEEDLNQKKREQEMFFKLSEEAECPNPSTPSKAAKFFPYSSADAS
UniProt O60858: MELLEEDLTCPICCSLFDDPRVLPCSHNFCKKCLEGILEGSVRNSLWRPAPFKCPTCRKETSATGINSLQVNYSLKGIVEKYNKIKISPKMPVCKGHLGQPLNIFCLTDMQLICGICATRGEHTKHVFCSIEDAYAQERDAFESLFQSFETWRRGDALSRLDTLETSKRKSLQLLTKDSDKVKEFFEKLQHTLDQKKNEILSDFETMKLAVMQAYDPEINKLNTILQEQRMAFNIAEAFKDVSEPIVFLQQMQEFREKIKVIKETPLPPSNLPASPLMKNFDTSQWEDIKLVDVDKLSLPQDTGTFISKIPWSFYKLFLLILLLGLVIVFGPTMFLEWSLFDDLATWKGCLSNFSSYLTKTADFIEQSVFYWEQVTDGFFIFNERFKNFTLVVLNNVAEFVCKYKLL
UniProt O75037: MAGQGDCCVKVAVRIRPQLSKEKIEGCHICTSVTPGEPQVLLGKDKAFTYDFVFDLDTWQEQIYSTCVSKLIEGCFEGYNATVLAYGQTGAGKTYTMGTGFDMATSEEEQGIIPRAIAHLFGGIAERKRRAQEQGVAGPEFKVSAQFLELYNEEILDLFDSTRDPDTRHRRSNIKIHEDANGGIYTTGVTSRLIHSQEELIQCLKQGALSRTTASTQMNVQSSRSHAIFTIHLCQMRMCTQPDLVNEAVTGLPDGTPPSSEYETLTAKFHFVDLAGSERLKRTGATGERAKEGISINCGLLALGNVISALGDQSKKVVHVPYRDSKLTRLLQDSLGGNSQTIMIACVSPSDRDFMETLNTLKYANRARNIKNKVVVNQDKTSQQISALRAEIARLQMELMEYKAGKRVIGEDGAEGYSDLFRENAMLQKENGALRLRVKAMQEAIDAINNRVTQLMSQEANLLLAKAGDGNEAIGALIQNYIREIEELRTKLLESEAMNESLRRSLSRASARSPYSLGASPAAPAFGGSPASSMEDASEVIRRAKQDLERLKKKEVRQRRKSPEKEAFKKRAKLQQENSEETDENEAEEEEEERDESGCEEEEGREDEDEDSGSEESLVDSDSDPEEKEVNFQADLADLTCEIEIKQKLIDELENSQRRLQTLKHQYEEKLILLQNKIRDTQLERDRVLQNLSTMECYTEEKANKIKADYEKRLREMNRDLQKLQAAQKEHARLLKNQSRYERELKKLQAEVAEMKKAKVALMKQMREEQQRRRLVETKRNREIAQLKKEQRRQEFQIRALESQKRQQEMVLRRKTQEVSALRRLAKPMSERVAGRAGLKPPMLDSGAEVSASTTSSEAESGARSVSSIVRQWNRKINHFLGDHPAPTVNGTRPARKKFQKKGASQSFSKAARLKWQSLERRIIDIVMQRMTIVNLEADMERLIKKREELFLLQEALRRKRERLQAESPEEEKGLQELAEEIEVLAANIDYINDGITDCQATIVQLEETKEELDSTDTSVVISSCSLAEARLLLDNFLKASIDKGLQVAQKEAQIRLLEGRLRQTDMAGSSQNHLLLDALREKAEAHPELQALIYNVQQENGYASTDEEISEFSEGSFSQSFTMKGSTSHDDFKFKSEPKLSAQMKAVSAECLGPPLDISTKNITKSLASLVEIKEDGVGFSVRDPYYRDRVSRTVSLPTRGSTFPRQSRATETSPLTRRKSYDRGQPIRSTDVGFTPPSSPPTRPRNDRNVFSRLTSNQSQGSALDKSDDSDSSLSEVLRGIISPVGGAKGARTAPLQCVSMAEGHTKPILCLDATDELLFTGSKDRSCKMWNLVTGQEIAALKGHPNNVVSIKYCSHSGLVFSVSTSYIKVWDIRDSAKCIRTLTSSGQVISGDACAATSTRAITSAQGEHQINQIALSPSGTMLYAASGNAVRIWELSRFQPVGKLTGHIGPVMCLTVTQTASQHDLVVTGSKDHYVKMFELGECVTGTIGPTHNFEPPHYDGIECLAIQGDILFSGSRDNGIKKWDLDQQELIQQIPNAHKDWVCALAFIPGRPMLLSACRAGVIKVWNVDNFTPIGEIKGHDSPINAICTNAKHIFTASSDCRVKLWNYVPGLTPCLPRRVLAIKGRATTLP
UniProt O95365: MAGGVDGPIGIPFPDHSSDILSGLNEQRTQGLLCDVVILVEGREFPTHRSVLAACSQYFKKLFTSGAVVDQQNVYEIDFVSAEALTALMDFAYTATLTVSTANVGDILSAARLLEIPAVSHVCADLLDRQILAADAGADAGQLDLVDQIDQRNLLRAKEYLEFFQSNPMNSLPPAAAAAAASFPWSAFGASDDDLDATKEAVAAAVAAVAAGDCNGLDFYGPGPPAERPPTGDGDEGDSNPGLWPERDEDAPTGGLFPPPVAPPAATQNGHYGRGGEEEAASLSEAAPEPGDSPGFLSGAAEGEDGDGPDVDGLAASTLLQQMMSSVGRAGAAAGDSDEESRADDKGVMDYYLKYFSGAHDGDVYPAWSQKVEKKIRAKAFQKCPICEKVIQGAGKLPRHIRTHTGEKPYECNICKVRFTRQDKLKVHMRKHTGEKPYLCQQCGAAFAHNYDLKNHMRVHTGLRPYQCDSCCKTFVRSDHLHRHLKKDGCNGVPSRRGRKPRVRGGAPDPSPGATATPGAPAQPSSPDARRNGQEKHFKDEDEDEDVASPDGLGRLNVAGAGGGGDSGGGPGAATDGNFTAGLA
UniProt O94766: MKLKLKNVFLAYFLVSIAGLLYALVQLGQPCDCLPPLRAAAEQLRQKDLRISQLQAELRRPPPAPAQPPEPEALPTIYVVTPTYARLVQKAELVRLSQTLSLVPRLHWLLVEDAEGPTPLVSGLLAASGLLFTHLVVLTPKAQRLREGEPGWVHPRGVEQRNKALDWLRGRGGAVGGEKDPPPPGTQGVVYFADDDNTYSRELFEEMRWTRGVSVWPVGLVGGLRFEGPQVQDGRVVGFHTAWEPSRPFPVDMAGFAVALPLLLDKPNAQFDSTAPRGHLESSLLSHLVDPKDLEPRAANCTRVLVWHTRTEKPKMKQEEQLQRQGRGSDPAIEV
UniProt O95243: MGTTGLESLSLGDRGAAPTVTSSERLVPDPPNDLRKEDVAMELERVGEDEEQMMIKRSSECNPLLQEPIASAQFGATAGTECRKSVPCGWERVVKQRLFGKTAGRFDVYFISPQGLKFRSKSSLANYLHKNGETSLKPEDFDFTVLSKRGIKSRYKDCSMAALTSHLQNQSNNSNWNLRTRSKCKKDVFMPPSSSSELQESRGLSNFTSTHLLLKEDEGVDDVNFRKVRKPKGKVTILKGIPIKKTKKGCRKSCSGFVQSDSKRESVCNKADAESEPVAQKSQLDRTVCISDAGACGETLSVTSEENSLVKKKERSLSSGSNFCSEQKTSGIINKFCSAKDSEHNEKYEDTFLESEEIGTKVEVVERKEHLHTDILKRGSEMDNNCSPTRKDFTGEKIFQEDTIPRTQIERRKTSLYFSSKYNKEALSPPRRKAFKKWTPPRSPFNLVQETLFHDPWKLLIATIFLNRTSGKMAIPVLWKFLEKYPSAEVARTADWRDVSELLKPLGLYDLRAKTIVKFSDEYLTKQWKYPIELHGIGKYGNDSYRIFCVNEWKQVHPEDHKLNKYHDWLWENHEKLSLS
UniProt O75151: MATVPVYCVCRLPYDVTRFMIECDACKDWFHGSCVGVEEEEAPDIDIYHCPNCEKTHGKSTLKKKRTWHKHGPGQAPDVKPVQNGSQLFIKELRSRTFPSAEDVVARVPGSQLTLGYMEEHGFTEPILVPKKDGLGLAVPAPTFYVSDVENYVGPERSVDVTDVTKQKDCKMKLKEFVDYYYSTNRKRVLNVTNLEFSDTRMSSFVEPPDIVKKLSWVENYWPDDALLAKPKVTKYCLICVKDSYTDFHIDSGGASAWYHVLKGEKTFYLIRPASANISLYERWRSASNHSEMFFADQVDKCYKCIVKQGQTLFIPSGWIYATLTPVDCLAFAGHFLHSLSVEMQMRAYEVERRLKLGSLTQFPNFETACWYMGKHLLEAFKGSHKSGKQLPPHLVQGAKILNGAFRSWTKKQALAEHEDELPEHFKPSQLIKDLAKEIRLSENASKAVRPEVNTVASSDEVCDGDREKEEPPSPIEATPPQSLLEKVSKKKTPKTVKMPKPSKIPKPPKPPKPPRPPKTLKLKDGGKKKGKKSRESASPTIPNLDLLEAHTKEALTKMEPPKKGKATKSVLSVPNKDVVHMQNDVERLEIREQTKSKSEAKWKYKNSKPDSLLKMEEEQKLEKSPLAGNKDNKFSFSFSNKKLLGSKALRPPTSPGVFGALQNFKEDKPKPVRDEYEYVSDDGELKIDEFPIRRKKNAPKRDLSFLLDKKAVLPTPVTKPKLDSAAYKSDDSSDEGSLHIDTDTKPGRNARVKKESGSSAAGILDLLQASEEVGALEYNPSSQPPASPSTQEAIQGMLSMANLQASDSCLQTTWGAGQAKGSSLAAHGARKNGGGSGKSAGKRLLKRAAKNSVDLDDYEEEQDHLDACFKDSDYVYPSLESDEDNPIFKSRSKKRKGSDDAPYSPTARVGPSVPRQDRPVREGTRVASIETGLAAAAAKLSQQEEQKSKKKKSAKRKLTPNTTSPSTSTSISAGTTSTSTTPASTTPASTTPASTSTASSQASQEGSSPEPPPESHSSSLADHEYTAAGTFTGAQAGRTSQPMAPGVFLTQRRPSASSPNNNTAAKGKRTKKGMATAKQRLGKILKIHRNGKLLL

Compound: Nc1ncnc2c1ncn2[C@@H]1O[C@H](COP(=O)(O)OP(=O)(O)OP(=O)(O)O)[C@@H](O)[C@H]1O [adenosine triphosphate]
Experiment: NP40-soluble protein abundance relative to vehicle (solubility fold change) (ratio); higher = more soluble protein in presence of ATP
Conditions: concentration: 0.1mM
Outline: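 Across three independent experiments, values are fold changes against the detergent-processed vehicle for each replicate, based on vsn-normalised intensities. The samples were Jurkat crude lysate treated with eight concentrations (0.1 to 10 mM) for 10 min at room temperature and then 3 min at 37 °C. Lysate was solubilised with 0.8% NP40 and benzonase, ultracentrifuged, and the supernatant analysed by TMT-labelled LC-MS/MS.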

Row | Target | NP40-soluble protein abundance
1 | UniProt O75530 | 1.05 ± 0.054
2 | PPP1R11 (UniProt O60927) | 1 ± 0.06
3 | UniProt O95236 and related entries | 0.932 ± 0.023
4 | UniProt O75312 | 0.991 ± 0.032
5 | CIAO1 (UniProt O76071) | 1.03 ± 0.042
6 | WDHD1 (UniProt O75717) | 0.994 ± 0.014
7 | KBTBD11 (UniProt O94819) | 1.01 ± 0.033
8 | UniProt O75319 and related entries | 0.951 ± 0.12
9 | UniProt O95235 and related entries | 1.05 ± 0.031
10 | UniProt O60506 and related entries | 0.989 ± 0.035
11 | UniProt O75879 and related entries | 0.994 ± 0.024
12 | UniProt O94964-2 | 0.984 ± 0.075
13 | SMPD2 (UniProt O60906) | 1.04 ± 0.18
14 | UniProt O60488 and related entries | 1.07 ± 0.093
15 | UniProt O94804 | 0.999 ± 0.023
16 | UniProt O60858 and related entries | 1.1 ± 0.037
17 | UniProt O60711 and related entries | 1.05 ± 0.071
18 | UniProt O75037 and related entries | 0.963 ± 0.03
19 | UniProt O95425 and related entries | 1.04 ± 0.38

Row | Target | NP40-soluble protein abundance
20 | UniProt O75431 and related entries | 0.989 ± 0.039
21 | ZBTB7A (UniProt O95365) | 0.973 ± 0.059
22 | B3GAT3 (UniProt O94766) | 0.966 ± 0.034
23 | UniProt O95243 and related entries | 1.04 ± 0.063
24 | UGDH (UniProt O60701) | 1.02 ± 0.026
25 | ARL6IP5 (UniProt O75915) | 1.01 ± 0.069
26 | UniProt O95429 and related entries | 1.02 ± 0.14
27 | USP1 (UniProt O94782) | 0.999 ± 0.018
28 | UniProt O94864 and related entries | 0.9 ± 0.11
29 | MRPS14 (UniProt O60783) | 0.875 ± 0.13
30 | UniProt O95671 and related entries | 1.04 ± 0.068
31 | FAM20B (UniProt O75063) | 1.06 ± 0.039
32 | MFN2 (UniProt O95140) | 1.08 ± 0.034
33 | PHF2 (UniProt O75151) | 1.01 ± 0.11
34 | SLC25A12 (UniProt O75746) | 1 ± 0.021
35 | UniProt O60888 and related entries | 0.85 ± 0.092
36 | CCDC22 (UniProt O60826) | 1 ± 0.028
37 | NUP155 (UniProt O75694) | 1.09 ± 0.089
38 | MYO1D (UniProt O94832) | 1.09 ± 0.017

Same assay, conditions: concentration: 0.5mM

Row | Target | NP40-soluble protein abundance
39 | UniProt O75530 | 1.145 ± 0.0061
40 | PPP1R11 (UniProt O60927) | 1.01 ± 0.079
41 | UniProt O95236 and related entries | 0.907 ± 0.06
42 | UniProt O75312 | 0.988 ± 0.043
43 | CIAO1 (UniProt O76071) | 0.9961 ± 0.0077
44 | WDHD1 (UniProt O75717) | 1.01 ± 0.052
45 | KBTBD11 (UniProt O94819) | 0.98 ± 0.04
46 | UniProt O75319 and related entries | 0.965 ± 0.043
47 | UniProt O95235 and related entries | 1.16 ± 0.057
48 | UniProt O60506 and related entries | 0.965 ± 0.022
49 | UniProt O75879 and related entries | 0.997 ± 0.046
50 | UniProt O94964-2 | 1 ± 0.069
51 | SMPD2 (UniProt O60906) | 0.973 ± 0.11
52 | UniProt O60488 and related entries | 1.1 ± 0.079
53 | UniProt O94804 | 1.01 ± 0.034
54 | UniProt O60858 and related entries | 1.09 ± 0.033
55 | UniProt O60711 and related entries | 1.05 ± 0.078
56 | UniProt O75037 and related entries | 1.05 ± 0.054
57 | UniProt O95425 and related entries | 0.826 ± 0.057

Row | Target | NP40-soluble protein abundance
58 | UniProt O75431 and related entries | 0.9804 ± 0.0042
59 | ZBTB7A (UniProt O95365) | 0.999 ± 0.018
60 | B3GAT3 (UniProt O94766) | 0.979 ± 0.034
61 | UniProt O95243 and related entries | 1.03 ± 0.036
62 | UGDH (UniProt O60701) | 1.03 ± 0.06
63 | ARL6IP5 (UniProt O75915) | 1.04 ± 0.073
64 | UniProt O95429 and related entries | 1.08 ± 0.36
65 | USP1 (UniProt O94782) | 0.983 ± 0.065
66 | UniProt O94864 and related entries | 0.896 ± 0.11
67 | MRPS14 (UniProt O60783) | 0.819 ± 0.12
68 | UniProt O95671 and related entries | 1.03 ± 0.07
69 | FAM20B (UniProt O75063) | 0.988 ± 0.029
70 | MFN2 (UniProt O95140) | 1.04 ± 0.021
71 | PHF2 (UniProt O75151) | 1.02 ± 0.047
72 | SLC25A12 (UniProt O75746) | 0.997 ± 0.026
73 | UniProt O60888 and related entries | 0.888 ± 0.16
74 | CCDC22 (UniProt O60826) | 0.977 ± 0.024
75 | NUP155 (UniProt O75694) | 1.05 ± 0.069
76 | MYO1D (UniProt O94832) | 1.19 ± 0.095
